# Reference: patent US20250228938A1, “THE COMBINATION OF MACROPHAGE-DIRECTED IMMUNOTHERAPY AND TARGETED AGENTS FOR TREATMENT OF CANCER” (Whitehead Institute for Biomedical Research, priority 2022, published 2025)
# For some assays here: For at least one compound, name, drawing or mass did not settle the structure. Some results were stated once for a whole list of compounds, not compound by compound.
# Key:
# [1] = system: 3LL ΔNRAS cells engrafted into C57BL/6 mice; experiment: Syngeneic tumor model of 3LL ΔNRAS cells (wild-type or CD47-knockout) in C57BL/6 mice; type: in vivo, mouse; conditions: sotorasib 30 mg/kg five times weekly
# [2] = system: GFP+ PC9 cells; conditions: with anti-CD47 therapy; drugs at 5.0 uM
# Text: To identify drugs that make lung cancer cells more vulnerable to macrophage-mediated destruction, a novel, unbiased screening platform that measures macrophage anti-tumor function in a high-throughput manner was developed (FIG. 1A). We first employed this platform to study EGFR mutant lung cancer. We differentiated primary human macrophages ex vivo and co-cultured them in 384-well plates with GFP+ PC9 cells, a human EGFR mutant lung cancer cell line. A small molecule library of 800 FDA-approved drugs (FIGS. 6A-B) was added to the wells at 5.0 uM concentration along with a CD47-blocking antibody. We then cocultured the cells for 3-5 days and performed whole-well imaging to quantify the surviving GFP+ area. We evaluated the ability of each drug to kill the GFP+ PC9 cells in the presence of activated macrophages compared to GFP+ PC9 cells alone.
# GFP+ PC9 cells and primary human macrophages were co-cultured in 384-well plates in IMDM supplemented with 10% ultra-low IgG fetal bovine serum, 100 units/mL penicillin, 100 ug/mL streptomycin, and 292 ug/mL L-glutamine and 20 ng/mL human M-CSF. […] Wells were imaged using automated fluorescence microscopy with an Incucyte S3 system (Sartorius). Automated image analysis was performed using Incucyte Analysis Software (Sartorius) to quantify the percentage of GFP+ area occupied by target cells in each well. […]
Structure (SMILES),"tumor growth, wild-type 3LL ΔNRAS tumors [1]",enhancement of macrophage-mediated cytotoxicity [2]
C=CC(=O)N1CCN(c2nc(=O)n(-c3c(C)ccnc3C(C)C)c3nc(-c4c(O)cccc4F)c(F)cc23)[C@@H](C)C1 [sotorasib],able to inhibit tumor growth as a single agent,
C#Cc1cccc(Nc2ncnc3cc(OCCOC)c(OCCOC)cc23)c1 [erlotinib],,over 4 fold
